What all share (assay): co-IP; modified chromatin immunoprecipitation (ChIP-IP): transfected H1299 cells fixed with 1% formaldehyde 10 min, nuclear pellet lysed in 1% SDS, sonicated, diluted; the FLAG-tagged partner held on anti-FLAG-agarose beads; washes up to 500 mM NaCl and 0.25 M LiCl; cross-links reversed, DNase I; immunoblot. Also done after serum starvation, 20% serum for 4 h (interaction enhanced) or UV irradiation 60 J, 4 h (interaction significantly reduced)
(A western blot detects proteins with antibodies after separation by electrophoresis.)

Chains of the proteins cited; added tags and fusions are not shown. Lines headed by an entry give the natural chain unless they say otherwise; changes in a name come on top. A line that says so, or that is headed by a name, gives the form on record, which may keep a tag or linker.
UniProt P05412: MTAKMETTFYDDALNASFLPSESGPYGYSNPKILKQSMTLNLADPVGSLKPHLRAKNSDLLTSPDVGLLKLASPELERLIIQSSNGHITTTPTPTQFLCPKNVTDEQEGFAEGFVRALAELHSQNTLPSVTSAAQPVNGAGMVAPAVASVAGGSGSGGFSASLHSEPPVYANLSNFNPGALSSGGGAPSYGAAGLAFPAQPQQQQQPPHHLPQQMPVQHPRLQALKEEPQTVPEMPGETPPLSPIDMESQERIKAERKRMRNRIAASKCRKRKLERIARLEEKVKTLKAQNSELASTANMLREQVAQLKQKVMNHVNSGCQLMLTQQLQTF
FLAG-tagged c-Jun^AA mutant (P05412, form named): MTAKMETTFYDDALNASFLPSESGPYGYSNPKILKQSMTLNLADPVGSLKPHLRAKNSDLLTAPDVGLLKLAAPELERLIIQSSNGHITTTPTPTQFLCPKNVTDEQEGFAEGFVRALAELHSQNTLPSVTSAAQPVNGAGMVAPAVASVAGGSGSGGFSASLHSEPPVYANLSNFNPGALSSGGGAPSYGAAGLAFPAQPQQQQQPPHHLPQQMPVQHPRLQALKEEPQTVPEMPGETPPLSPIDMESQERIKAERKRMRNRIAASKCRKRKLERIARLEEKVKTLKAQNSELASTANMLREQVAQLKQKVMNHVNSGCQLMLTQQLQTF

Test [1] addresses T1, FLAG-tagged TAp73^58–249 (UniProt O15350).
T1 sequence: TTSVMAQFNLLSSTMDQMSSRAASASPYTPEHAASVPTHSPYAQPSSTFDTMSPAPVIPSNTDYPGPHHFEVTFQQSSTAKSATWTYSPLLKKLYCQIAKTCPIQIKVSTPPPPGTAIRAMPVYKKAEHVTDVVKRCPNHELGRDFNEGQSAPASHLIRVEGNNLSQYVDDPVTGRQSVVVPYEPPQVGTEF

For test [2], the target named is T2, FLAG-tagged TAp73^355–474 (UniProt O15350).
T2 sequence: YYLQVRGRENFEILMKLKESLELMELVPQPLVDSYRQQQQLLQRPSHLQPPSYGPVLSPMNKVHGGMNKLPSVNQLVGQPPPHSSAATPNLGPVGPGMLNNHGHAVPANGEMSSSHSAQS

Test [3] has as its target T3, FLAG-tagged TAp73^1–399 (UniProt O15350).
T3 sequence: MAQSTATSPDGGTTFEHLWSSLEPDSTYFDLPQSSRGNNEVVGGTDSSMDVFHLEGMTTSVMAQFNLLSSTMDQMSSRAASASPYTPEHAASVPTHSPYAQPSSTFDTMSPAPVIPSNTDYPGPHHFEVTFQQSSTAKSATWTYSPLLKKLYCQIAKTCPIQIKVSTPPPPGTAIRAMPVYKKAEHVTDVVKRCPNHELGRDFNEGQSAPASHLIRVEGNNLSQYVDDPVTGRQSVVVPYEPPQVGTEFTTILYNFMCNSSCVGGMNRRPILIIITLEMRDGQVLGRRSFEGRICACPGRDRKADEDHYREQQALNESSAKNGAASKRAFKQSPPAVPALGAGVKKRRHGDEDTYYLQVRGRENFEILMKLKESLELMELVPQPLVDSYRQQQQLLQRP

The target of test [4] is FLAG-tagged c-Jun^AA mutant (UniProt P05412).

Results are given in words; binding and its absence hold for the method and conditions named. Binding seen in cells or lysates may run through a third protein. Some results given as binding are weak or reduced against the parent protein; the word gives no strength. Sequences can lack the tags named with a protein.

As to “c-Jun (untagged) (from UniProt P05412 1-331)”, the binding entry is recorded as “no binding” in test [1], “binds” in test [2] and “binds” in test [3].

B1: TAp73β (untagged) (protein, UniProt O15350-2 1-499)
chain: MAQSTATSPDGGTTFEHLWSSLEPDSTYFDLPQSSRGNNEVVGGTDSSMDVFHLEGMTTSVMAQFNLLSSTMDQMSSRAASASPYTPEHAASVPTHSPYAQPSSTFDTMSPAPVIPSNTDYPGPHHFEVTFQQSSTAKSATWTYSPLLKKLYCQIAKTCPIQIKVSTPPPPGTAIRAMPVYKKAEHVTDVVKRCPNHELGRDFNEGQSAPASHLIRVEGNNLSQYVDDPVTGRQSVVVPYEPPQVGTEFTTILYNFMCNSSCVGGMNRRPILIIITLEMRDGQVLGRRSFEGRICACPGRDRKADEDHYREQQALNESSAKNGAASKRAFKQSPPAVPALGAGVKKRRHGDEDTYYLQVRGRENFEILMKLKESLELMELVPQPLVDSYRQQQQLLQRPSHLQPPSYGPVLSPMNKVHGGMNKLPSVNQLVGQPPPHSSAATPNLGPVGPGMLNNHGHAVPANGEMSSSHSAQSMVSGSHCTPPPPYHADPSLVRTWGP
For B1, the binding result in test [4] is “binds”.
